Data from paper PMC12040169 (PLOS Biology, 2025).
The list shows a part of the results.

These compounds were tested on T1, CTL2-GFP (C. trachomatis L2/434/Bu, GFP-expressing). Conditions: bulk GFP, single well; 28.5 h, 10 µM; inhibitor.
T1 construct: L2/434/Bu, GFP-expressing
Set-up: species or system HeLa; Intracellular C. trachomatis growth in HeLa cells, bulk GFP fluorescence relative to DMSO

SMILES | % of control remaining
Clc1ccc(CN2CCC(Oc3cncc(OCCN4CCOCC4)n3)C2)cc1 (centres unmarked) [CBK084480] | 109.346%
Cc1ccc(N(CC(=O)NN=C2CCCCCCCCCCC2)S(=O)(=O)c2ccccc2)cc1 [CBK262192] | 110.159%
O=[N+]([O-])c1ccccc1CS(=O)(=O)Nc1ccc(-c2nnn[nH]2)cc1 [CBK155430] | 87.161%
COc1ccc2cc(Cn3nc(C(=O)O)c4ccccc4c3=O)c(Cl)nc2c1 [CBK295354] | 152.547%
CN1CCN(c2nc(-c3ccc4c(c3)CCC(=O)N4)cs2)CC1 [CBK304319C] | 114.721%
Cc1cc(S(=O)(=O)CC#N)c(C)cc1Cl [CBK018672] | 145.941%
CCNC(=O)N1CCN(CCCC(O)c2ccc(F)cc2)CC1 (centres unmarked) [CBK025001C] | 105.139%
O=C(C1CCCC1)N1CCC(c2cccc(Cc3ccccc3Cl)n2)CC1 [CBK286507] | 91.4531%
COc1ccc(C(C)C)cc1S(=O)(=O)NCCN1CCOCC1 [CBK266538] | 124.57%
CCn1cc(-c2cncn2CCn2nc(C)c(Cl)c2C)cn1 [CBK281708] | 116.019%
CC(C)Nc1cncc(Sc2ccccc2N)n1 [CBK093726] | 93.3897%
CN1CCC(N(CCO)CC2(c3ccc(Cl)cc3)CC2)CC1 [CBK282781] | 95.2511%
N/C(CSc1cccc2c1CCCC2)=N\O [CBK006787C] | 142.751%
Clc1ccc(-c2nc(C3CCN(CCc4ccccc4)CC3)n3ccccc23)cc1 [CBK035316] | 100%
COc1cc2c(cc1/C=C1/S/C(=N\c3ccccc3)N(CCCN3CCOCC3)C1=O)OCO2 [CBK265631] | 100%
O=C(NCC1COc2ccccc2O1)c1cc(-c2ccc(Cl)cc2)cnc1N1CCOCC1 (centres unmarked) [CBK076286] | 124.53%
c1ccc(C(Oc2nccnc2-c2cccs2)c2ccccc2)cc1 [CBK107061] | 94.5574%
CC(=O)c1ccc(N2CCN(Cc3cc(C(C)(C)C)c(O)c(C(C)(C)C)c3)CC2)cc1 [CBK261749] | 103.787%
O=C(C1=C(O)C(=O)N(CCCN2CCOCC2)C1c1cccnc1)c1cc2ccccc2o1 (centres unmarked) [CBK266147] | 127.066%
c1ccc(SCCN2CCOCC2)cc1 [CBK027679] | 129.005%
c1ccc2cc(OCc3ccc(-c4nccnc4-c4nnn[nH]4)cc3)ccc2c1 [CBK050818] | 100%
O=C(CC(C(=O)O)c1c[nH]c2ccccc12)c1ccc(Cl)cc1 (centres unmarked) [CBK286620] | 135.19%
COc1ccc(/C=C(\C)C(=O)Nc2cc3ccccc3c(N3CCNCC3)n2)cc1OC [CBK038937T] | 103.12%
Cc1c(C(C)NC(=O)C2C3CCC(O3)C2C(=O)O)cnn1C (centres unmarked) [CBK286887] | 111.367%
CC(=O)Nc1c(C#N)cnn1C [CBK046332] | 110.635%

Arranged by number of heavy atoms (smallest number first): some entries from above
SMILES | % of control remaining
CN1CCC(N(CCO)CC2(c3ccc(Cl)cc3)CC2)CC1 [CBK282781] | 95.2511%
O=C(C1=C(O)C(=O)N(CCCN2CCOCC2)C1c1cccnc1)c1cc2ccccc2o1 (centres unmarked) [CBK266147] | 127.066%
COc1cc2c(cc1/C=C1/S/C(=N\c3ccccc3)N(CCCN3CCOCC3)C1=O)OCO2 [CBK265631] | 100%

(continued)

SMILES | % of control remaining
O=C(Nc1ccc2oc(-c3cccnc3)nc2c1)c1ccc(Br)o1 [CBK263436] | 90.5819%
O=C(Nc1cccc(-c2nc3ncccc3o2)c1)c1cccnc1Cl [CBK058695] | 124.1%
CCOc1ccccc1NC(=O)CC1Sc2ccc(C(F)(F)F)cc2NC1=O (centres unmarked) [CBK263659] | 84.5684%
O=C1NC2(CCC(=O)N(Cc3ccccc3)CC2)Oc2ccccc21 (centres unmarked) [CBK284438] | 128.757%
Cc1cccc(OCC2CCCN(C(=O)Cn3cc(C)cn3)C2)c1 (centres unmarked) [CBK281531] | 125.494%
CCCCOC(=O)CCn1c(=S)oc2ccccc21 [CBK019181] | 156.179%
Cc1ccc(-c2csc3ncnc(SCc4nc5ccccc5[nH]4)c23)cc1 [CBK267590] | 139.842%
O=C(NC(c1ccc(Cl)cc1)c1cnccn1)C1CCN(Cc2ccc(Oc3ccccc3)cc2)CC1 (centres unmarked) [CBK148023] | 69.3943%
O=C(Cc1ccc(-c2ccccc2)cc1)NCc1nnc(-c2cccs2)o1 [CBK286295] | 114.581%
COc1ccc(/C=N/NC(=O)Cn2nnnc2N)cc1 [CBK262122] | 118.366%
COc1cc(NC(=O)NC(=O)C2CCN(C(C)=O)CC2)cc(OC)c1OC [CBK034831] | 104.939%
CCOCCCNC(=O)c1cnn2c(C)c(Cc3cccc(C#N)c3)c(C)nc12 [CBK162081] | 96.9656%
CC(=O)Nc1cccc(-c2ccc(Nc3cccc(N(C)C)c3)nc2)c1 [CBK036829] | 177.624%
COc1cccc(C(=O)N2CCN(C(=O)Nc3ccsc3)CC2)c1 [CBK154782] | 105.132%
COc1ccc(OC)c(NC(=O)CSc2nnc(-c3ccc(N)cc3)n2C)c1 [CBK265872] | 125.683%
COc1cc([N+](=O)[O-])cc(CN2CCN(CCO)CC2)c1O [CBK261851] | 113.229%
CCN(CC)C(=O)c1c(NS(=O)(=O)c2ccc(C)cc2)sc2c1CCCC2 [CBK028627] | 99.1287%
O=C(OCc1ccc(Cl)cc1)c1ccc2c(c1)C(=O)N(c1cccc([N+](=O)[O-])c1)C2=O [CBK265188] | 108.646%
Cc1cc(F)c(S(=O)(=O)NCCN2CCOCC2)cc1NC(=O)c1ccc(Br)o1 [CBK059091C] | 128.446%
CC(C)N1CCCC2(CCN(C(=O)Cc3c[nH]c(=O)n(C)c3=O)C2)C1=O (centres unmarked) [CBK307115] | 108.503%
Cc1ccc(CNC(=O)NCCc2cccs2)cc1 [CBK044960] | 87.0795%
Cc1noc(NS(=O)(=O)c2ccc(N/C=C\C(=O)c3cccnc3)cc2)c1C [CBK264285] | 11.6311%
Nc1nnc(-c2ccc(Cl)cc2)[nH]1 [CBK025436] | 118.025%
COc1cccc(NC(=O)O[C@@H]2CC[C@]3(C)C(CC[C@H]4OC(=O)C[C@H]43)[C@]2(C)CO)c1 (some centres unmarked) [CBK289576] | 141.244%
O=C(CN1C2CCC1CC(O)(c1ccco1)C2)N1CCCCC1 (centres unmarked) [CBK284093] | 131.407%
